# Data taken from PubChem BioAssay AID1347426 (Functional Genomics Laboratory (NCATS/FGL), 2020).
# About 1,400 (4.5%) of roughly 31,000 sequences were called active.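 Rule for the calls: active = median seed-adjusted z-score above 1 or below -1; inactive = the rest.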 The list shows a part of the results.
# Experiment: Novel Modifiers of Survival Motor Neuron (SMN) Protein: Gene Identification via Genome-wide siRNA Screen;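 note: luminescence tracks full-length SMN protein made from the SMN2 reporter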
# Settings: HEK293T SMN2-luciferase reporter, siRNA knockdown, 72 h; actives lie on both sides
# Method in brief: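 HEK293T cells stably carrying an SMN2 promoter/splicing cassette–luciferase reporter were reverse-transfected with 1 pmol siRNA per well (druggable-genome library, 3 siRNAs per gene) and grown 72 h at 37 °C. Luminescence, normalized to negative-control siRNA and log10-transformed, was scored as MAD.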
row,Sequence,median seed-adjusted z-score
1,GCAAGCCUAUAGUCAUUGATT against LGI1,inactive: -0.19
2,GCAACAGAAGAAUCCUGUATT against CTSL1,inactive: 0.378
3,GCUGUGAUAUGAUAGAUGUTT against RRAGD,inactive: 0.313
4,CCGUUGUUGUAAGAAGAAATT against MICA,inactive: -0.0635
5,GGAAGAUCCACACCCUAAATT against ZNF70,inactive: -0.558
6,GGAUCACUCUAUGAUUACATT against ZAK,inactive: -0.113
7,GGAUAUAAUGAGAUAUGUUTT against ETF1,active: -1.12
8,CCUUCUCACGCAGCACUGUTT against INHA,inactive: 0.231
9,ACAAUACCCUCAGACUGAATT against NMUR1,inactive: -0.265
10,CAAGGAUCUCUGUCGGGUATT against DNAJC13,inactive: -0.12
11,GUAUCUACGGAGCCCUCAATT against SLC25A37,inactive: -0.0821
12,GGAUAACAGGAAUCGAUCATT against SLC23A2,inactive: -0.0585
13,CUAUAUGGAUAUAACUUCUTT against TBX18,inactive: 0.424
14,CGUCAGAUCUGAACAAGAATT against CHST4,inactive: 0.349
15,CGACUCUGACACCACCAUATT against GOSR2,active: -1.25
16,GACUGUUCGUUUCCCAGAUTT against CHRNA7,inactive: -0.485
17,CCAAGUUAGAUAUUCCAAATT against ARPC1A,inactive: -0.433
18,GCUUUUAACCAUCCUGCAATT against ZNF486,inactive: 0.324
19,UGAACUACAUUGUACCCAUTT against BPI,inactive: 0
20,GCAAUUACCUAACUUCUGUTT against RNASE10,inactive: -0.109
21,GGAUUUACAGUGUGAGAUATT against ZNF573,inactive: -0.169
22,CUCUCAUCUUGGUUGGAAATT against RERG,inactive: 0.59

row,Sequence,median seed-adjusted z-score
1,AGGACUGCCUGAUUGACAATT against RXRA,inactive: 0.304
2,CACUCACUGUUCCUAUCAATT against STAMBPL1,inactive: 0.13
3,GGUUAAAGCUGAAGCUCAATT against XRCC6,inactive: 0
4,CAAGAGGGUUUUUACCAUATT against SEC11C,inactive: 0.508
5,ACUGUUUCCUCACCAAGAATT against PTAFR,inactive: 0.302
6,GGACAAAUCUUUGUGCAUUTT against PES1,inactive: 0.44
7,GCCUAGUGUUCAUCCUGUATT against SLC6A2,inactive: 0
8,CCAUUUGAAUGUUCGUAAUTT against FDFT1,inactive: -0.143
9,AGACUACGGUGGACAAACUTT against SLC8A3,inactive: -0.0434
10,GGAAUAGAGAAGCUCCUAATT against NID2,inactive: 0.283
11,CAACCUACUUAGAUGACAATT against SLCO5A1,inactive: 0.272
12,GUGGUCCUGUGACUGCUGATT against KCNK7,inactive: 0.0523
13,CAUGAACCCUUGGUAGAUATT against TBRG1,active: -1.47
14,CCAUUACAGAGGGAGUUCATT against NRBP1,active: -1.13
15,CAUUUCACCCAAAACCUUUTT against ZNF718,inactive: 0.0564
16,GCAUUGUGAAAGUAAUAGATT against UTX,inactive: 0.157
17,GAAGUCAACUUUGACCAUUTT against STK32B,inactive: 0.683
18,CAAUAUGACGAGCUCCAAATT against RNASE9,inactive: 0.188
19,UCCUCUCUCUGGAUCUUAATT against TRIM7,inactive: -0.845
20,GCUUUAAGUUUAAGGAGUATT against PIP4K2B,inactive: 0.17
21,GAAUGUCCCUGGAGUACUATT against DUSP13,inactive: -0.772
22,GCAACGAAAUGAACCUCUUTT against PCDH10,inactive: -0.488

row,Sequence,median seed-adjusted z-score
1,UCUUCUCCCUGAUAAAGUATT against SLC6A13,inactive: 0.267
2,GCAAGCUAUUGCUAACUAUTT against ZNF416,inactive: 0.668
3,GCUACUUAAUCACCACCGATT against NAGK,inactive: 0.446
4,GCACGGAAAUUCUACAAGATT against ABCA4,active: -1.09
5,GGAUUCUGUUCCUUAGGUUTT against BSG,inactive: 0.211
6,GAUUACUACUUGACGAAGATT against TRIM14,inactive: -0.0636
7,GCGGAACACGAAGAAGUAATT against TMPRSS11E,inactive: 0.0512
8,GAACUGCAAUGUUUGCGAUTT against ZZEF1,inactive: 0.167
9,CAGUCUUUAUGCAAUGGAATT against TYR,inactive: 0.131
10,GAAGUUUACCAAAUUCGCATT against GPR137C,inactive: -0.405
11,CAGCUGAAAUCGAUGAAGATT against NACA,inactive: 0.117
12,CUAUUACUACUACAACUGATT against HTRA4,inactive: 0.838
13,CGAUGCUUGUCAGUCCCAATT against NOTCH4,inactive: -0.384
14,CAUUCGUCCGGGACUAAUATT against RBM16,inactive: 0.279
15,GGCUGUACAUUGAGCAGAATT against GPER,inactive: 0.157
16,CCAAAGCUCAGAGUAUUUATT against LCOR,inactive: -0.0435
17,GAUUGUAUCCAGAAUCUCATT against ENPP1,inactive: -0.273
18,CGGCCGAAGUAGUAAAAGATT against ADA,inactive: -0.242
19,UCAGGACCCUGUACACCCATT against GPS1,inactive: 0.205
20,GAUCAUACCUUGAAAAUUATT against ROBO1,inactive: -0.096
21,GGAUCGAGUUUGAUAACGATT against ITGA6,inactive: -0.224
22,GGAUGAUAGAGAACGAAGATT against PARD3,inactive: -0.116

row,Sequence,median seed-adjusted z-score
1,CCGCUUGAGUUCAACAAGATT against C10orf2,inactive: 0.31
2,AGAUGCUGCUUGACAUAAATT against KRT15,inactive: 0.756
3,CCAUCAACACUGGUAAGAATT against KIF11,inactive: -0.381
4,CCCAUUUCAUGAGUCGCAATT against INO80,inactive: 0.0546
5,ACACGGAUAUUUACAGAGATT against SLC26A6,inactive: 0.316
6,GAGUAAAGGGUGUUACUAUTT against YEATS4,inactive: 0.905
7,GGUAAGAGCUUUAAUCAGATT against ZNF235,inactive: 0.348
8,CUAGCAACAUGGACAUAUUTT against STS,inactive: -0.392
9,AGAUGUCGCUGUGGACUUUTT against ZNF317,inactive: 0.087
10,GGAUAACAUCAUACCGUUUTT against SLC12A6,inactive: 0.155
11,CAAGGAGCAUAAGUACAAATT against F12,inactive: 0.345
12,GACAAGAUGCUGAAACAAATT against GSG2,inactive: 0.804
13,UGGAAGACCUGAAAACAGATT against PMM1,inactive: -0.597
14,GCGCCGAUAUAAUGCUCUUTT against PATZ1,inactive: -0.57
15,CGAUGGAUCUGAUGGAGCATT against APOA5,inactive: -0.791
16,GAGUGUCUGAAAAAGUUCATT against CAMK2B,inactive: 0.0305
17,GCAUGUCUUUGCCUAUAGATT against PAM,inactive: 0
18,CUACCACUACAAGACCUAUTT against B4GALT7,inactive: -0.00294
19,AGAUUACCCUGGGCCUUCATT against GCDH,inactive: -0.0391
20,GGAUCACUGAUGUCAUUAUTT against DHTKD1,inactive: 0.591
21,CCUUCGCCCAUAGCCUUAATT against ATP1B4,inactive: 0.664
22,GGAAUACCGUUUACUGCAATT against ERCC5,inactive: -0.0811

row,Sequence,median seed-adjusted z-score
1,CCAUAGCCUUUAUUAUUCATT against PTPLB,inactive: 0.0451
2,GGGAAAUAGUGAGAGCCUUTT against ZNF101,inactive: 0.336
3,GGAAGGCAUUGUCAGAUGATT against CYP4F12,inactive: -0.564
4,GAUCGAGAUAUGAAGCGAATT against PMPCA,inactive: -0.985
5,GGAGUUUCCAGAUCUCAAATT against LGR6,inactive: 0.237
6,GGCUUACUGGGUGAAUUAUTT against CARD17,inactive: 0.301
7,GAGACAGCAUAGAAGUUAATT against MAP1D,inactive: 0.155
8,CAAGGUUCUUGGUUGGGUATT against ZDHHC13,inactive: -0.381
9,CGGAUGCACAAGCUAAAUATT against BHLHA15,inactive: -0.199
10,GCUUAAGUCCUAGUGAACATT against ZNF649,inactive: 0.259
11,GGACUGUCCCUACAAUCUATT against HS6ST2,inactive: 0
12,CUUCAGCUGUCUGUACCCATT against SPIB,inactive: 0.0726
13,GGACCUAGCUGGGAACUUATT against GTF2IRD2,inactive: 0.904
14,GCAAGACCAUGCUACUAUUTT against DPAGT1,inactive: -0.144
15,GAGUGUAACUGCAACCAGATT against NTNG2,inactive: 0.403
16,GUAUCUAAGAGAGAUGAAATT against AP3S1,inactive: 0.787
17,GCACUACUGUGGACUCUUATT against DCHS1,inactive: 0.565
18,GCAUGAUUCUGGAAGCGCATT against ATP11A,inactive: 0.158
19,GAACUUGCAUCAGCACUGATT against ANXA2,inactive: 0.499

# 2 successive entries already listed, quoted:
row,Sequence,median seed-adjusted z-score
8,CAAGGUUCUUGGUUGGGUATT against ZDHHC13,inactive: -0.381
9,CGGAUGCACAAGCUAAAUATT against BHLHA15,inactive: -0.199
